This note sets out measurements from patent US20230078601A1 (CLEVELAND CLINIC FOUNDATION, published 2023).

No constants are given. Whether binding was seen depends on the method and setting. Some binding calls cover weakened binding; strength is not graded here. For some of these results: Where a sequence is shown, tags or fusion partners need not be part of it.

One assay deals with T1, 9-24.
T1 sequence (peptide): FFEAPGVRGSTKTLGE
The experiment in a line: SPOT peptide array on cellulose membrane, 4D12G1, chemiluminescence.

The target of the next assay is T2, p20-24.
T2 sequence (peptide): KTLGE
The assay is described as above.

Another assay concerns the target T3, 10-25.
T3 sequence (peptide): FEAPGVRGSTKTLGEL
Described as above.

A further assay deals with T4, p24-39.
T4 sequence (peptide): ELLDTGTELPRAIRCL
The description is as above.

The target in a further assay is T5, p21-25.
T5 sequence (peptide): TLGEL
Described as above.

Another assay concerns the target T6, p20-25.
T6 sequence (peptide): KTLGEL
The assay is described as above.

The target of another assay is T7, p23-38.
T7 sequence (peptide): GELLDTGTELPRAIRC
Described as above.

The target of a further assay is T8, p25-40.
T8 sequence (peptide): LLDTGTELPRAIRCLY
The assay is described as above.

For assay [1], the target named is T9, recombinant extracellular domain of human AMHR2 (rhAMHR2-ED), C-terminal hexahistidine-tagged fusion protein (human) (UniProt Q16671).
T9 sequence: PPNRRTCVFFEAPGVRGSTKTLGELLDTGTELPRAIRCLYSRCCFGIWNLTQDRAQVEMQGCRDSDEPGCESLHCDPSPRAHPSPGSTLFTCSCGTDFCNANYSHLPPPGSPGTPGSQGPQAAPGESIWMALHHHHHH
The assay can be described thus: ELISA. Background: In an ELISA, binding on a coated surface is turned into a signal by an enzyme label.

The target of assay [2] is T9, recombinant extracellular domain of human AMHR2 (rhAMHR2-ED), C-terminal hexahistidine-tagged fusion protein (human). The assay can be described thus: competitive ELISA, rhAMHR2-ED in liquid phase against plate-coated rhAMHR2-ED.

B1: 4D12G1 mAb (antibody, IgG1, V domains shown)
VH: DVKLVESGGGLVKLGGSLKLSCAASGFTFSRYFMSWVRQTPEKRLELVAAINSDGGRTYYPDTVKGRFTISRDNAKNTLYLQMSSLKSEDTALYYCTRHIYSYYEDYFDYWGQGTTLTVSS
VL: DVVMTQTPLSLPVSLGDQASISCRSSQSLVHSNGNTYLHWYLQKPGQSPKLLIYKVSKRFSGVPDRFSGSGSGTDFTLKISRVEAEDLGVYFCSQSTHVYTFGGGTKLEIK
notes: also called 4D12G1 IgG1 mAb
On to B1, for which the binding result with 9-24, with p20-24, in the assay with 10-25, in the assay with p24-39, with p21-25 and in the assay with p20-25 was “no binding (tested: 1.0 µg/ml)” in each case. Further, the binding entry is on record as “no binding (tested: 1.0 µg/ml)” in the assay with p23-38, “no binding (tested: 1.0 µg/ml)” with p25-40, “binds” in [1] and “binds” in [2].
